From paper PMC11339035
No constants are given. Whether binding was seen depends on the method and setting. In cells and extracts the contact can be indirect. Some binding calls cover weakened binding; strength is not graded here.

The chains behind the UniProt entries cited, without tags or fusion partners.
UniProt Q91VJ5: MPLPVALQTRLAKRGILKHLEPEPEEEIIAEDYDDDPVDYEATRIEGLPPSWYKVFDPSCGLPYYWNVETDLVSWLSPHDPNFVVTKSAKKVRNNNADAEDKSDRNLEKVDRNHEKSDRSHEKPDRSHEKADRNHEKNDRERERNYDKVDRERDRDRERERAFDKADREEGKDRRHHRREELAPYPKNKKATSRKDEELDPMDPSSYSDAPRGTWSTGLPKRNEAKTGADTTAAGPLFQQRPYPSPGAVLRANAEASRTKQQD
UniProt Q91YD9: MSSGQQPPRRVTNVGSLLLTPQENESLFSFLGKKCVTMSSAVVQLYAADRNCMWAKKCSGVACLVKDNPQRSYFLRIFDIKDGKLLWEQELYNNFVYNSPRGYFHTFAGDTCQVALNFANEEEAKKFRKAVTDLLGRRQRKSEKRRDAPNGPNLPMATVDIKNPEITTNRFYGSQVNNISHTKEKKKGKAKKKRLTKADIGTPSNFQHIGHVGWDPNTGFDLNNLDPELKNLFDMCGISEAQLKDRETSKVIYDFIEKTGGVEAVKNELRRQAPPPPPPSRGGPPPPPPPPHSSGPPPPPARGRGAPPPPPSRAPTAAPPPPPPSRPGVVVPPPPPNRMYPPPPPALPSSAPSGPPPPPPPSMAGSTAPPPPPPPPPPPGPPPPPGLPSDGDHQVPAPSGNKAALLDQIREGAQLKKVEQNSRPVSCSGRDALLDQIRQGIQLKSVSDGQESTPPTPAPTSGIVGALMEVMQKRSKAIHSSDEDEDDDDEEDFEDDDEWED

Biological target: Polyglutamine-binding protein 1 (PQBP1), endogenous in mouse brain and hippocampal neurons (mouse (endogenous in brain and hippocampal neurons)) (UniProt Q91VJ5)
Test: co-IP; cytoplasmic proteins from brains of 8-10-day-old C57BL/6 mice; anti-PQBP1 polyclonal antibody or pre-immunized rabbit serum, protein A beads, 4 °C; Western blot

Substance: neural Wiskott-Aldrich syndrome protein (N-WASP), endogenous in mouse brain and hippocampal neurons (from UniProt Q91YD9 1-501)
- binding: binds
